We go through five molecules from paper doi:10.1101/2021.12.08.471779.

Holding throughout (assay): cross-linking
The target of experiment [1] is T1, FepA V16C (Escherichia coli K-12) (UniProt P05825).
T1 sequence: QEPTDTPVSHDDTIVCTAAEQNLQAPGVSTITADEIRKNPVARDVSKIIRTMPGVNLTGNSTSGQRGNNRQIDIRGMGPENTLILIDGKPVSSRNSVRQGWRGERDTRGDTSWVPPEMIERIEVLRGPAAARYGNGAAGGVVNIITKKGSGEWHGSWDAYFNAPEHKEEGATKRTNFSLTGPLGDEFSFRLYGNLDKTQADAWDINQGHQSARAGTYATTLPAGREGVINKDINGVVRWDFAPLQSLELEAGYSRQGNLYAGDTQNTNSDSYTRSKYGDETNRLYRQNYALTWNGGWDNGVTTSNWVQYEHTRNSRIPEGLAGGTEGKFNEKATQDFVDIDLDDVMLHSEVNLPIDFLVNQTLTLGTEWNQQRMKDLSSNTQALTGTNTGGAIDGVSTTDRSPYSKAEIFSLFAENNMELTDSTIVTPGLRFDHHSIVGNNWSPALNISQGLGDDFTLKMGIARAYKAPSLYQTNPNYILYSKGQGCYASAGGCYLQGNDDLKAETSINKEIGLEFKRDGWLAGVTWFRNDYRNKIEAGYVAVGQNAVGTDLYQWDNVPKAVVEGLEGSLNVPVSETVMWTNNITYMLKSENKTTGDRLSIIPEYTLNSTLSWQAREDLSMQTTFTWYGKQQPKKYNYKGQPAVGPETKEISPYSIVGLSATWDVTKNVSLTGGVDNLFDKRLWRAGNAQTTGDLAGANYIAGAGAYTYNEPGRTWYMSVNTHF

Experiment [2] has as its target T2, ExbD (Escherichia coli K-12 (endogenous in W3110 derivatives)) (UniProt P0ABV2).
T2 sequence: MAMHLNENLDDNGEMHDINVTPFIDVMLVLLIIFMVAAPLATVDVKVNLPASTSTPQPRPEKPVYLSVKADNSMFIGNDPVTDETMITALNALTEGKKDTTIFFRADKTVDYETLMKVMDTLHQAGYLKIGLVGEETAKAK

In experiment [3] the target is T3, FepA, wild type, chromosomally encoded (Escherichia coli K-12 (endogenous in W3110)), P05825.
T3 chain: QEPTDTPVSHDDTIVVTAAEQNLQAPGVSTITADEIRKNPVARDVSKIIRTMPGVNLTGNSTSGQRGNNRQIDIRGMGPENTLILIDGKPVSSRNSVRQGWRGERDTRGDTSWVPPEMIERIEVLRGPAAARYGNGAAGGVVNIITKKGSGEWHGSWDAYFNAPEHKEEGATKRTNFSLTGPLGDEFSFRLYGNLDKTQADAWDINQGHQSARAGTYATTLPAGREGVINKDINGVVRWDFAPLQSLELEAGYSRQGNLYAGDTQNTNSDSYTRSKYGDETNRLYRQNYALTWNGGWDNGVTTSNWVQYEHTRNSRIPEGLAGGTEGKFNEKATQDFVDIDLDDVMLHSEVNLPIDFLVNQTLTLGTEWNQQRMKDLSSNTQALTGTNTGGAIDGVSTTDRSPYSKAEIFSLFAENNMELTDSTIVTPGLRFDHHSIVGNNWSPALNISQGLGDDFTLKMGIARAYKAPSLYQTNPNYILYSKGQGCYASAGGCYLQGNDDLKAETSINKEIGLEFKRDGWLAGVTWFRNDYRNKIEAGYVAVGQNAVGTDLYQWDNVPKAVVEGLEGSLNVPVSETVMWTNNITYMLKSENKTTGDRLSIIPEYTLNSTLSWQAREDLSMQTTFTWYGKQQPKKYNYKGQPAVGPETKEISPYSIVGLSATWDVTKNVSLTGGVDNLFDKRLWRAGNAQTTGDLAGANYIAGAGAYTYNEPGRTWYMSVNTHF
To be noted: remark: other sources report otherwise.

These are yes or no findings as the source states them, for the method shown. Binding seen in cells or lysates may run through a third protein. Some binding calls cover weakened binding; strength is not graded here.

As for “TonB C18G Q160C F202A (from UniProt P02929 1-239)”, the binding entry in experiment [1] was “binds”.
On to “TonB F202A, W213A (pKP531) (from UniProt P02929 1-239)”, for which the binding result in experiment [2] is “no binding”.
On the same count and under the same terms, the same measure for “TonB F202A, Y215A (pKP532) (from UniProt P02929 1-239)”: “no binding”; for “TonB, plasmid-encoded (pKP442) (from UniProt P02929 1-239)”: “binds”.

B1: TonB, wild type, chromosomally encoded, P02929 1-239 (protein)
chain: MTLDLPRRFPWPTLLSVCIHGAVVAGLLYTSVHQVIELPAPAQPISVTMVTPADLEPPQAVQPPPEPVVEPEPEPEPIPEPPKEAPVVIEKPKPKPKPKPKPVKKVQEQPKRDVKPVESRPASPFENTAPARLTSSTATAATSKPVTSVASGPRALSRNQPQYPARAQALRIEGQVKVKFDVTPDGRVDNVQILSAKPANMFEREVKNAMRRWRYEPGKPGSGIVVNILFKINGTTEIQ
Regarding B1, the binding entry in experiment [3] is “no binding”.
